Reference: US5502166A, “NMDH receptor proteins and genes encoding the same” (Mitsubishi Chemical Corporation, priority 1992, dated 1996)
At least one compound was matched to its structure with a doubt left.

Chains of the proteins cited; added tags and fusions are not shown. Residues count along the entry.
UniProt Q03391, 28-1323: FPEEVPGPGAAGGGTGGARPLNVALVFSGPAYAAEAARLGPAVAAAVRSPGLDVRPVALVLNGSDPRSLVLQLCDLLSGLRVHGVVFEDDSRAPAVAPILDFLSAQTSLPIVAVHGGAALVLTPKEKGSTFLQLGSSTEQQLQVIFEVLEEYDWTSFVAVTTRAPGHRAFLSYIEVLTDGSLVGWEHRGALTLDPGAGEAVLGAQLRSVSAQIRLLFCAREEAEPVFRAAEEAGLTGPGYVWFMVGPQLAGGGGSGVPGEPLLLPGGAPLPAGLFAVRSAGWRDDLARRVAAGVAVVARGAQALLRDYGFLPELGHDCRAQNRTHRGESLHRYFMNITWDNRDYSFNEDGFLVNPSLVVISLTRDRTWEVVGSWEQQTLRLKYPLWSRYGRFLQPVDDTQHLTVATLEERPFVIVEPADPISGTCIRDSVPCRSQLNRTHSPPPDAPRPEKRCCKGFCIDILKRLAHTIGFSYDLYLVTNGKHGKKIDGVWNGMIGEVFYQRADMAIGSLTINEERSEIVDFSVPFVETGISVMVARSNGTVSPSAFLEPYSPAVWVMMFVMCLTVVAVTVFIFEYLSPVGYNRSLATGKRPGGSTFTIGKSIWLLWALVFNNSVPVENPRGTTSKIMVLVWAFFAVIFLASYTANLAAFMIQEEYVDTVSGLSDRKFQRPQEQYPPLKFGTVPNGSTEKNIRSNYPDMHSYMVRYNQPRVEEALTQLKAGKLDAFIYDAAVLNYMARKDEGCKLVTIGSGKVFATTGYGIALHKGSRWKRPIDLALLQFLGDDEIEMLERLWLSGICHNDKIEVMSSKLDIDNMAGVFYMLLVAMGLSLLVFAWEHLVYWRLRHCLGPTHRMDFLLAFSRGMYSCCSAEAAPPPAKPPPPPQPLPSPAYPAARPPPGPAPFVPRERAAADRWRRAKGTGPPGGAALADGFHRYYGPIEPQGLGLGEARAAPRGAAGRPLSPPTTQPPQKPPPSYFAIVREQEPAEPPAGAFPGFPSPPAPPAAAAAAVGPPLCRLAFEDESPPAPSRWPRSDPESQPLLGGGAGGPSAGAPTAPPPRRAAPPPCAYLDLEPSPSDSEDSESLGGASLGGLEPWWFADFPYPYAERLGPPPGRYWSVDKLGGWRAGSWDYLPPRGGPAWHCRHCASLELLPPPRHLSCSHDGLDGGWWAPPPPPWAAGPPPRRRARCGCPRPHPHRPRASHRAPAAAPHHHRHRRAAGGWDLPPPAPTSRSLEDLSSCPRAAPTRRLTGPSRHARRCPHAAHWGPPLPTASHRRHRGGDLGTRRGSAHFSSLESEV

Tests used:
[1] = molecular target: ε4/.zeta.1 heteromeric NMDA receptor channel (Mus musculus, UniProt P35438+Q03391); test: Electrophysiological test in Xenopus oocytes expressing ε4 and .zeta.1 subunits; format: cell-based; conditions: compared with other ε/.xi. channels under the same conditions
Protocol: FIGS. 1(a) and 1(b) show functional expression of ε4/.zeta.1 heteromeric NMDA receptor channel cDNAs in frog oocytes. Current responses are measured at -70 mV membrane potential in normal Ringer's solution. […] FIG. 1(b) represent effects of 500 μM D-2-amino-5-phosphonovalerate (APV) (Glu/Gly +APV) and 100 μM 7-chlorokynurenate (7 CK) (Glu/Gly +7 CK) on a current response of the ε4/.zeta.1 heteromeric channel to Glu/Gly, respectively.
Current responses are measured at -70 mV membrane potential in a Ba^2+ -Ringer's solution.
Then, by using the pSPGR ε4 plasmid cut by EcoRI as a template and using SP6 RNA polymerase, ε4-specific mRNAs were synthesized in vitro. Transcription was carried out in the same manner as in Example 1.

ε1 subunit = test: Electrophysiological test in Xenopus oocytes expressing only the ε1 subunit; format: cell-based, mouse; conditions: 10 μM L-glutamate and 100 μM NMDA, even in the presence of 10 μM glycine
[2] = test system: ε1/.xi.1, ε2/.xi.1, ε3/.xi.1 and ε4/.xi.1 heteromeric NMDA receptor channels; test: Comparison of ε1/, ε2/, ε3/ and ε4/.xi.1 heteromeric channels in Xenopus oocytes; format: cell-based, mouse; conditions: Ba^2+ Ringer's solution

SMILES | degree of inhibition [1] | reaction of injected oocytes (ε1 subunit) | order of strength in affinity to agonist [2]
N[C@H](CCCP(=O)(O)O)C(=O)O [APV, D-2-amino-5-phosphonovalerate] | smaller than those of the other ε/.xi. channels | – | –
N[C@@H](CCC(=O)O)C(=O)O [L-glutamate] | – | did not show any reaction | ε4/.xi.1>ε3/.xi.1>ε2/.xi.1
